The target of the experiment is T1, TKs5 (tyrosine kinase substrate with five SH3 domains) (human (endogenous in A549 and HeLa)) (UniProt Q5TCZ1).
T1 sequence: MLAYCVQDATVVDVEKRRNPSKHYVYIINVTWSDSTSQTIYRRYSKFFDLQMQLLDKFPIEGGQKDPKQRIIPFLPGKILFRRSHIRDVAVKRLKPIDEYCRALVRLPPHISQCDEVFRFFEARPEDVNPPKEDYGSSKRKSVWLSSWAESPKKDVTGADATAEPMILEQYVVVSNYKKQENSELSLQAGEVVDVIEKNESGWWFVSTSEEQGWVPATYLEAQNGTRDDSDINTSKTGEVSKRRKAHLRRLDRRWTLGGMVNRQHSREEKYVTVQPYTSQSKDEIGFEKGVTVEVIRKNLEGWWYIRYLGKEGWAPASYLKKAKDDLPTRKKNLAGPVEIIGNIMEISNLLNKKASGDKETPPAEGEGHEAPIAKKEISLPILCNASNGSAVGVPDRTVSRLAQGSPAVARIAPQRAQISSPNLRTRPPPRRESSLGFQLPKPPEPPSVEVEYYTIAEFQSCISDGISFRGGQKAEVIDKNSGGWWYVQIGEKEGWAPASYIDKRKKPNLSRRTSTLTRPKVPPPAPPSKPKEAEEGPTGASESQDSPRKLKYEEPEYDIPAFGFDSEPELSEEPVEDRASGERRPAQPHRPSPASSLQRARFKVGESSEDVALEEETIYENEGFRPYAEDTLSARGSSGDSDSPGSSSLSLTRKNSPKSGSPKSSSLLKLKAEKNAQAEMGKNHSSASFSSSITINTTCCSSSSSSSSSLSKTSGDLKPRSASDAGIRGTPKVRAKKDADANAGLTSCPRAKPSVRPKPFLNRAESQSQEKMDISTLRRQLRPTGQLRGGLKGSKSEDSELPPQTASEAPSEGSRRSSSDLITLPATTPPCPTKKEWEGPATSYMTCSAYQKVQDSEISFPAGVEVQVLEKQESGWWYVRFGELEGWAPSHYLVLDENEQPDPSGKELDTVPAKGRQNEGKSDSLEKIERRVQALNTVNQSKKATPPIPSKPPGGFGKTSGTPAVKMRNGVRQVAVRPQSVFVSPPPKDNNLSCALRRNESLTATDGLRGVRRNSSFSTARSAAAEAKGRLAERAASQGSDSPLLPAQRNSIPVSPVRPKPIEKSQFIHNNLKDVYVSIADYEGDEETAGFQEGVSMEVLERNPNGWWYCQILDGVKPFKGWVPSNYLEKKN
Description: co-IP; Catch and Release Reversible Immunoprecipitation System; A549 and HeLa cells lysed 24 h after transfection in CHAPS lysis buffer (40 mM HEPES pH 7.5, 120 mM NaCl, 1 mM EDTA, 0.3% CHAPS); 1000 ug protein with 4 ug antibody overnight at 4 C; Western blot; rabbit IgG as negative control; cells untreated, mock, or transfected with p17, PTEN, PTEN C124A, p17 + PTEN C124A (FAK-Src) or with p17, p17 + TKs5 (TKs5-Nck1, TKs5-Rab40b). For orientation: A western blot detects proteins with antibodies after separation by electrophoresis.

These are yes or no findings as the source states them, for the method shown. In cells and extracts the contact can be indirect. Some results given as binding are weak or reduced against the parent protein; the word gives no strength.

B1: Rab40b (protein, UniProt Q12829 1-278)
chain: MSALGSPVRAYDFLLKFLLVGDSDVGKGEILASLQDGAAESPYGHPAGIDYKTTTILLDGRRVKLQLWDTSGQGRFCTIFRSYSRGAQGVILVYDIANRWSFDGIDRWIKEIDEHAPGVPKILVGNRLHLAFKRQVPTEQAQAYAERLGVTFFEVSPLCNFNITESFTELARIVLLRHGMDRLWRPSKVLSLQDLCCRAVVSCTPVHLVDKLPLPIALRSHLKSFSMANGLNARMMHGGSYSLTTSSTHKRSSLRKVKLVRPPQSPPKNCTRNSCKIS
B1: the binding result is given as “binds”.

These data come from publication PMC12198159.
